Results taken from paper PMC2703648.
No constants are given. Whether binding was seen depends on the method and setting. Binding seen in cells or lysates may run through a third protein. A yes stands for co-enrichment or nearness to the bait. Other partners may have been found.

Biological target: GST-IgFn (IgFn region of rat Kalirin12 fused to GST) (rat) (UniProt P97924)
Assay: affinity purification with mass spectrometry; GST-IgFn on glutathione-Sepharose 4B beads incubated 1 h, 4C with cytosolic and solubilized organellar fractions (5 mg protein) of adult rat cortex, pre-cleared on GST beads; 100 kDa band excised, trypsin digestion, mass spectrometry; only the target purified

binding: binds
B1: dynamin1 (rat, endogenous) (protein, UniProt P21575 1-864)
chain: MGNRGMEDLIPLVNRLQDAFSAIGQNADLDLPQIAVVGGQSAGKSSVLENFVGRDFLPRGSGIVTRRPLVLQLVNSTTEYAEFLHCKGKKFTDFEEVRLEIEAETDRVTGTNKGISPVPINLRVYSPHVLNLTLVDLPGMTKVPVGDQPPDIEFQIRDMLMQFVTKENCLILAVSPANSDLANSDALKIAKEVDPQGQRTIGVITKLDLMDEGTDARDVLENKLLPLRRGYIGVVNRSQKDIDGKKDITAALAAERKFFLSHPSYRHLADRMGTPYLQKVLNQQLTNHIRDTLPGLRNKLQSQLLSIEKEVDEYKNFRPDDPARKTKALLQMVQQFAVDFEKRIEGSGDQIDTYELSGGARINRIFHERFPFELVKMEFDEKELRREISYAIKNIHGIRTGLFTPDLAFEATVKKQVQKLKEPSIKCVDMVVSELTSTIRKCSEKLQQYPRLREEMERIVTTHIREREGRTKEQVMLLIDIELAYMNTNHEDFIGFANAQQRSNQMNKKKTSGNQDEILVIRKGWLTINNIGIMKGGSKEYWFVLTAENLSWYKDDEEKEKKYMLSVDNLKLRDVEKGFMSSKHIFALFNTEQRNVYKDYRQLELACETQEEVDSWKASFLRAGVYPERVGDKEKASETEENGSDSFMHSMDPQLERQVETIRNLVDSYMAIVNKTVRDLMPKTIMHLMINNTKEFIFSELLANLYSCGDQNTLMEESAEQAQRRDEMLRMYHALKEALSIIGDINTTTVSTPMPPPVDDSWLQVQSVPAGRRSPTSSPTPQRRAPAVPPARPGSRGPAPGPPPAGSALGGAPPVPSRPGASPDPFGPPPQVPSRPNRAPPGVPSRSGQASPSRPESPRPPFDL
